According to the supplement of paper PMC12819154, “High-throughput peptide-centric local stability assay extends protein–ligand identification to membrane proteins, tissues and bacteria” (Nature Structural & Molecular Biology, 2025):
This is one part of the list. Small differences around the control level are noise.

Protein sequences, listed by entry. Tags and fused reporters are not part of them. Lines headed by an entry give the natural chain unless they say otherwise; changes in a name come on top.
UniProt Q921J2, whole entry: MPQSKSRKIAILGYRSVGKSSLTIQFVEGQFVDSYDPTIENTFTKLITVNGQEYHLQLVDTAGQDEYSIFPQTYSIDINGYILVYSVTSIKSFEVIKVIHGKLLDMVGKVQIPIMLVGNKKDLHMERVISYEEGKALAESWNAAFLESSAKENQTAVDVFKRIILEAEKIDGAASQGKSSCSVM
UniProt Q99J77: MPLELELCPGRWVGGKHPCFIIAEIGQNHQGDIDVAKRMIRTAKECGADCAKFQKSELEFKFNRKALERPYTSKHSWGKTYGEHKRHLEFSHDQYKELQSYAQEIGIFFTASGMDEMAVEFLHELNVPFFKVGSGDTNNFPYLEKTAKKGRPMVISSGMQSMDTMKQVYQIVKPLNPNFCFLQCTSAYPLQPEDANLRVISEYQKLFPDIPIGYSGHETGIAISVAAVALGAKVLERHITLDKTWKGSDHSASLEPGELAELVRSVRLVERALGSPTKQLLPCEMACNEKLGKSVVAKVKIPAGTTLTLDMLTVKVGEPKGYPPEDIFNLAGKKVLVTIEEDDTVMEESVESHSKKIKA
UniProt Q99L48: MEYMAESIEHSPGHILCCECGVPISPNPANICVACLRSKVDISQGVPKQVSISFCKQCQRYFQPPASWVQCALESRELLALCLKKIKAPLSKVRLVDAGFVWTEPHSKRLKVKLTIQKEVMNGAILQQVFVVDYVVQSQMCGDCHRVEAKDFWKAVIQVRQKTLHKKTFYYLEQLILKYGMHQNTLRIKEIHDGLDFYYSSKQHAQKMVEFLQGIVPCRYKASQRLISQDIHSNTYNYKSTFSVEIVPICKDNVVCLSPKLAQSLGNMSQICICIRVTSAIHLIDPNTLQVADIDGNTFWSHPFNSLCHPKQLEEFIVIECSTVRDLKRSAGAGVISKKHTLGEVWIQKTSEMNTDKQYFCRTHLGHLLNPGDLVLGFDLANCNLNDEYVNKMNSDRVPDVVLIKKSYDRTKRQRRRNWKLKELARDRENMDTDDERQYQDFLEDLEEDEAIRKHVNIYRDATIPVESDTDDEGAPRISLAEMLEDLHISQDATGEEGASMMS
UniProt Q923B0: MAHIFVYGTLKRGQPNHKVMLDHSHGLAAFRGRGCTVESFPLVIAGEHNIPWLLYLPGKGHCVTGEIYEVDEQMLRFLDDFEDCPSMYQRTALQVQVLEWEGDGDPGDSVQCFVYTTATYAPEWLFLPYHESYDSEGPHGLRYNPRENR
UniProt Q921I9, whole entry: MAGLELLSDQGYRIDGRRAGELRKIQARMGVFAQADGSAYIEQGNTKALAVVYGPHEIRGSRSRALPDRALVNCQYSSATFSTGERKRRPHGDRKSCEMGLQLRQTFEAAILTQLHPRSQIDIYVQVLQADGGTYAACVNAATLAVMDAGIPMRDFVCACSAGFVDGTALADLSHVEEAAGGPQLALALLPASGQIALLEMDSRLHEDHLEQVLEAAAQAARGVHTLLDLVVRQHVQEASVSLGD
UniProt Q99J10: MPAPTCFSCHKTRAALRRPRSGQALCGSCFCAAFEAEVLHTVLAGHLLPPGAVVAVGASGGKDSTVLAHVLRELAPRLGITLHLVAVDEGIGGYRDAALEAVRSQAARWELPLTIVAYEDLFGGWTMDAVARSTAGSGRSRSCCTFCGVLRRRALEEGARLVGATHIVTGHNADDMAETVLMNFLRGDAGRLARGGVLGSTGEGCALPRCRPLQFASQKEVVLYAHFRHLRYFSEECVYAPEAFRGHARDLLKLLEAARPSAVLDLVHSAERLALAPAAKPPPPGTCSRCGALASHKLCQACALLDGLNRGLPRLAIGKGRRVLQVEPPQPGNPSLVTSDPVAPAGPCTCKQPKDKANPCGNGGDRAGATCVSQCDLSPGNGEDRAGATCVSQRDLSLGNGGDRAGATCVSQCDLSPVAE
UniProt Q921M4: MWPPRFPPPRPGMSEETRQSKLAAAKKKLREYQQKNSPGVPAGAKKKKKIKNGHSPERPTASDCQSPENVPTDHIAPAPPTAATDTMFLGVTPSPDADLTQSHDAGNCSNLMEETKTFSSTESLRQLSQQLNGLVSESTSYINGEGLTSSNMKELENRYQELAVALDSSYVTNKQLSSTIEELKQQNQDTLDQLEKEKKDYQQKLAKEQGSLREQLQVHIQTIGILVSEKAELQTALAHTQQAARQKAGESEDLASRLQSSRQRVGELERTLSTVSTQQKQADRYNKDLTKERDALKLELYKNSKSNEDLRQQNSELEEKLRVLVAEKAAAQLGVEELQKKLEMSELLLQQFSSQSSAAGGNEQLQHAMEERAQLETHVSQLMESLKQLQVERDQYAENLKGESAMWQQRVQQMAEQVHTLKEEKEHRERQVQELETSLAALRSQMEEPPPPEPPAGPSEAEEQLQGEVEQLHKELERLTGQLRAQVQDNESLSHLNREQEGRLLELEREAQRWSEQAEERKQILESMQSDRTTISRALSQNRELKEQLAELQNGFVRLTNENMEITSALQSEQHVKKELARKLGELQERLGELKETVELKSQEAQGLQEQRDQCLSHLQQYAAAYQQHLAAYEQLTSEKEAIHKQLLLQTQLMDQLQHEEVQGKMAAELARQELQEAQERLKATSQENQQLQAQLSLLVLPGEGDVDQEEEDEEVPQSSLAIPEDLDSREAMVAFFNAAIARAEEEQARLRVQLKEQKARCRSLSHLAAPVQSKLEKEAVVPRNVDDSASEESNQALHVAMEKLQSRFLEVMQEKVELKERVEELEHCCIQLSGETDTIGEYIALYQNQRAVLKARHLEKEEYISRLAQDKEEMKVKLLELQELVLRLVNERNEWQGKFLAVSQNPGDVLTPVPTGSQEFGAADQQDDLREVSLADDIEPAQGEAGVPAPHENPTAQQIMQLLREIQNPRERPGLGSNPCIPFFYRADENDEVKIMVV
UniProt Q924C1: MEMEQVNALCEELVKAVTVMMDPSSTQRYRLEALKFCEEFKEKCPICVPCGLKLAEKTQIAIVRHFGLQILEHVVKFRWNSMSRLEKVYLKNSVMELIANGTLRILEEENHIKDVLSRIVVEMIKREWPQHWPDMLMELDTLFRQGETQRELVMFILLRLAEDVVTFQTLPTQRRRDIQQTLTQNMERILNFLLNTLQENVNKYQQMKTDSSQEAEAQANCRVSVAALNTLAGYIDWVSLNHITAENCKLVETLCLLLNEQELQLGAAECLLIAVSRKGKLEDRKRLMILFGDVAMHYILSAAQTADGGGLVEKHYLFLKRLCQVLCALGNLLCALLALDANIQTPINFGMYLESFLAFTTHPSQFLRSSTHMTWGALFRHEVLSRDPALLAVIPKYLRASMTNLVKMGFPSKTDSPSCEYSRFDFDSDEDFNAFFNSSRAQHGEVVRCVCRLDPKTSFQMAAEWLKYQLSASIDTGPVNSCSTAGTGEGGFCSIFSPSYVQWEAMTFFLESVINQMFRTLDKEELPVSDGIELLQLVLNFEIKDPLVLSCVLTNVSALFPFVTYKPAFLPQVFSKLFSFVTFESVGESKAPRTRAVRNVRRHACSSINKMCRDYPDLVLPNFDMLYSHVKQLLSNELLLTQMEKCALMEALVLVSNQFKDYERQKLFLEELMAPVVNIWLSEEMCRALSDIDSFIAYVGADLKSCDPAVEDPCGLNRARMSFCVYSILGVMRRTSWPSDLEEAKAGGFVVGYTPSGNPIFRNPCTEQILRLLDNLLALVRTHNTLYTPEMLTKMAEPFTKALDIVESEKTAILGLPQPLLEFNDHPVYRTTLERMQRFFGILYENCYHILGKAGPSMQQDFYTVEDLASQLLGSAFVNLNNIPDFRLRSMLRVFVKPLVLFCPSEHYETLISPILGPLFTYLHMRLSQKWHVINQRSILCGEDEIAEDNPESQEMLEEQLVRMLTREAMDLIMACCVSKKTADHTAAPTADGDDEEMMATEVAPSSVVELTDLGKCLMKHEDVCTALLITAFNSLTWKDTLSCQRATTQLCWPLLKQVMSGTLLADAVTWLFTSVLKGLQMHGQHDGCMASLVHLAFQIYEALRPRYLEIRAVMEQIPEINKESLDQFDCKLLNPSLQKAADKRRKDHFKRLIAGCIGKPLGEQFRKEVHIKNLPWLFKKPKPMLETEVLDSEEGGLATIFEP
UniProt Q99L43: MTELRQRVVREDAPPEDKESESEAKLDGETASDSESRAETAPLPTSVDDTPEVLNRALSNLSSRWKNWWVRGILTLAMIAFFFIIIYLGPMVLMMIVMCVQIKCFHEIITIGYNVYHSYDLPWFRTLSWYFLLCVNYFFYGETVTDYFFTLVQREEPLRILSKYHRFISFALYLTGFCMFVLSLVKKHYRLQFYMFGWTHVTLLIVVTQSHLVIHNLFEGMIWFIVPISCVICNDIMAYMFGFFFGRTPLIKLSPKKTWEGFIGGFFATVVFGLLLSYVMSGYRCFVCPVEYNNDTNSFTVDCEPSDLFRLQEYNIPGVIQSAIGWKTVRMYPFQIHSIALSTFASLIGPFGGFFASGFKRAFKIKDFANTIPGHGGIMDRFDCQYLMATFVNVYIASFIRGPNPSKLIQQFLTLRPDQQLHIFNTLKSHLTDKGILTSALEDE
UniProt Q923Q2: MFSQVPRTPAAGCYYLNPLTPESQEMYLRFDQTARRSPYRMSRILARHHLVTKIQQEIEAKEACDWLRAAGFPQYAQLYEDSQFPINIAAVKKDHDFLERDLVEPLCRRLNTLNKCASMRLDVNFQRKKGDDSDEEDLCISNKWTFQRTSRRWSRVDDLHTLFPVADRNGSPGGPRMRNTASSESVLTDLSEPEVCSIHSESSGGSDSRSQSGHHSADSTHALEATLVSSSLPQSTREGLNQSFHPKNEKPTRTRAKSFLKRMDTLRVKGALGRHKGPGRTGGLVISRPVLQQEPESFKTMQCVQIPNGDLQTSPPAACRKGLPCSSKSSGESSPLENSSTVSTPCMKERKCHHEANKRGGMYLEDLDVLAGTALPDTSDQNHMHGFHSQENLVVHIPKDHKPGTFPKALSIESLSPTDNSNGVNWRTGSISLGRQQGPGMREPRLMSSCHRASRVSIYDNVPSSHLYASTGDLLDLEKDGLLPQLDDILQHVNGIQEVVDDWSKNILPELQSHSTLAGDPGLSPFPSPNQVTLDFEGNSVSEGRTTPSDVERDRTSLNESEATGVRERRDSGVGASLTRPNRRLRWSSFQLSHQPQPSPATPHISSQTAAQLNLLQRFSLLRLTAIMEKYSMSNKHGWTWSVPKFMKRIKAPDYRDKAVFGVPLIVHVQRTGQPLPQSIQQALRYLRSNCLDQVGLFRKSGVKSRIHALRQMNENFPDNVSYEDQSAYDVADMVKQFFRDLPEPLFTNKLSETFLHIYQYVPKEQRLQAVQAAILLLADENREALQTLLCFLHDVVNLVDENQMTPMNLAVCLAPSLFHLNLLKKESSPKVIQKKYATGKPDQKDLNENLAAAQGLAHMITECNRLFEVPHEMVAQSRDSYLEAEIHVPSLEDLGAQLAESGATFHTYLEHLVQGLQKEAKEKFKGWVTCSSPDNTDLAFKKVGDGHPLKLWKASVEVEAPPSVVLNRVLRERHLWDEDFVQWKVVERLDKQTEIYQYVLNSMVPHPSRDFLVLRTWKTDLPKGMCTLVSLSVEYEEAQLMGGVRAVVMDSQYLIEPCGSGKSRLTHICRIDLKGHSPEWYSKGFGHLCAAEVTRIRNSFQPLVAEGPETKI
UniProt Q99J45: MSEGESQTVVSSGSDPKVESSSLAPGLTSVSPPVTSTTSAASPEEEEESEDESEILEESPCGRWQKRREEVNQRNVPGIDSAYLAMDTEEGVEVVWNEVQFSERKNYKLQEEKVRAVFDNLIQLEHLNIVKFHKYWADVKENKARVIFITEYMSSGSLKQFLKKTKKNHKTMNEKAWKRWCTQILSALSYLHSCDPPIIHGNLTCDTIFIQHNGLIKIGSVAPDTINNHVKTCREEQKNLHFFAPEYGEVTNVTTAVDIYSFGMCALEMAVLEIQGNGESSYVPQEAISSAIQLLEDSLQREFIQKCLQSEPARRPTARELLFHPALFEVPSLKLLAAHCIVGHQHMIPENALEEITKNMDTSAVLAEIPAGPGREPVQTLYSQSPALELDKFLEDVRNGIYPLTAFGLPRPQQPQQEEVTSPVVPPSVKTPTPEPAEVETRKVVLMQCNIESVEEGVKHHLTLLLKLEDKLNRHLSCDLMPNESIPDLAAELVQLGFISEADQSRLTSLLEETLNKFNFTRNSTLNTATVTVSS
UniProt Q99LH9: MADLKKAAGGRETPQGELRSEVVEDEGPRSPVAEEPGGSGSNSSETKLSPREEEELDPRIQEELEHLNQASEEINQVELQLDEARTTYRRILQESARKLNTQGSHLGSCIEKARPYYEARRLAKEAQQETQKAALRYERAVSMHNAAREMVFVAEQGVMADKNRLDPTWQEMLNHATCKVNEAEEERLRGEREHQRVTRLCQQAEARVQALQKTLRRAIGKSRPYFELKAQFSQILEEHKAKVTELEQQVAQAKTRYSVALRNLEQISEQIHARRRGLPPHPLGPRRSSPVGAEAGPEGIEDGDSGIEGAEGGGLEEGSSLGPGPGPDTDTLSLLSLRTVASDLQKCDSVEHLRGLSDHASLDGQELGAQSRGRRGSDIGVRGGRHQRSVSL

Each target was assayed with CN[C@@H]1C[C@H]2O[C@@](C)([C@@H]1OC)n1c3ccccc3c3c4c(c5c6ccccc6n2c5c31)C(=O)NC4 [staurosporine] (assay: log2 fold change of tryptic peptide abundance, ligand vs vehicle (limited proteolysis) (log2 ratio); higher = more trypsin-susceptible (destabilized)). Conditions: ligand concentration: 20 uM; sample: mouse liver crude lysate; replicate design: treated separately.
With “UniProt Q921J2 (peptide sequence: IILEAEKIDGAASQGK, peptide start residue: 163)” the log2 fold change was -0.133. With “UniProt Q99J77 (peptide sequence: VKIPAGTTLTLDMLTVK, peptide start residue: 299)” the log2 fold change was 0.141. In the case of “UniProt Q920Q8 (peptide sequence: NFASCMGDSR, peptide start residue: 139)”, the log2 fold change is reported as 0.109. “UniProt Q91ZW3 (peptide sequence: LLTQGFTNWNKR, peptide start residue: 836)” was tested, and the log2 fold change was 0.341. “UniProt Q99LB0 (peptide sequence: DLAASDDYR, peptide start residue: 275)” showed a log2 fold change of 0.417. “UniProt Q99L48 (peptide sequence: QVSISFCK, peptide start residue: 49)” gave a log2 fold change of -0.177. Target “UniProt Q923B0 (peptide sequence: VMLDHSHGLAAFR, peptide start residue: 19)” has a log2 fold change of -0.128. “UniProt Q921I9 (peptide sequence: SCEMGLQLR, peptide start residue: 96)” showed a log2 fold change of -0.233. Target “UniProt Q99J10 (peptide sequence: CRPLQFASQK, peptide start residue: 210)” has a log2 fold change of 0.499. Target “UniProt Q99LD9 (peptide sequence: GSELSERIEGFVETLKR, peptide start residue: 8)” has a log2 fold change of -0.96. With “UniProt Q99LG1 (peptide sequence: AETETSPGHAPDRQNSK, peptide start residue: 173)” the log2 fold change was -0.332. For “UniProt Q921M4 (peptide sequence: FLEVMQEK, peptide start residue: 809)”, the log2 fold change was 0.206. In the case of “UniProt Q99020 (peptide sequence: IFVGGLNPEATEEKIR, peptide start residue: 161)”, the log2 fold change is reported as -0.108. “UniProt Q924C1 (peptide sequence: FFGILYENCYHILGK, peptide start residue: 839)” was tested, and the log2 fold change was -0.324. “UniProt Q99L43 (peptide sequence: LDGETASDSESR, peptide start residue: 26)” showed a log2 fold change of 0.222. Target “UniProt Q924Z6 (peptide sequence: DYHSLKPSATAPQR, peptide start residue: 761)” has a log2 fold change of -0.767. “UniProt Q99JZ7 (peptide sequence: QSSEGSANKVPCILPIIENGKK, peptide start residue: 366)” was tested, and the log2 fold change was -0.435. For “UniProt Q99KU0 (peptide sequence: IAMSKDQHNGSLTDPSSVHEKK, peptide start residue: 13)”, the log2 fold change was -0.222. With “UniProt Q923Q2 (peptide sequence: SNCLDQVGLFR, peptide start residue: 689)” the log2 fold change was 0.223. “UniProt Q99J45 (peptide sequence: TPTPEPAEVETR, peptide start residue: 431)” gave a log2 fold change of -0.201. With “UniProt Q99L04 (peptide sequence: GQVCVVTGASR, peptide start residue: 7)” the log2 fold change was -0.709. With “UniProt Q925E0 (peptide sequence: EAPSFLKLPLGSPGPSSDHSSR, peptide start residue: 157)” the log2 fold change was -0.431. For “UniProt Q99JP6 (peptide sequence: EANAAATQWR, peptide start residue: 205)”, the log2 fold change was -0.302. “UniProt Q99LH9 (peptide sequence: VTELEQQVAQAK, peptide start residue: 243)” was tested, and the log2 fold change was 0.282. Work on “UniProt Q921T2 (peptide sequence: ISHLVLPVQPENTLK, peptide start residue: 576)” yielded a log2 fold change of -0.466. Target “UniProt Q920I9 (peptide sequence: GPTRPPRPGTPDLSK, peptide start residue: 917)” has a log2 fold change of 0.362. Target “UniProt Q99L28 (peptide sequence: QNIHLIR, peptide start residue: 129)” has a log2 fold change of 0.109. “UniProt Q921Z5 (peptide sequence: NLAVQAQK, peptide start residue: 20)” gave a log2 fold change of -0.142. Target “UniProt Q924A0 (peptide sequence: VVAECTLK, peptide start residue: 345)” has a log2 fold change of -0.246.
